# Measurements reported in the supplement of paper PMC8728848.
# The other results are listed elsewhere or left out.
# B1: MFG-E8 (Mus musculus), P21956 (protein)
# chain: MQVSRVLAALCGMLLCASGLFAASGDFCDSSLCLNGGTCLTGQDNDIYCLCPEGFTGLVCNETERGPCSPNPCYNDAKCLVTLDTQRGDIFTEYICQCPVGYSGIHCETETNYYNLDGEYMFTTAVPNTAVPTPAPTPDLSNNLASRCSTQLGMEGGAIADSQISASSVYMGFMGLQRWGPELARLYRTGIVNAWTASNYDSKPWIQVNLLRKMRVSGVMTQGASRAGRAEYLKTFKVAYSLDGRKFEFIQDESGGDKEFLGNLDNNSLKVNMFNPTLEAQYIKLYPVSCHRGCTLRFELLGCELHGCSEPLGLKNNTIPDSQMSASSSYKTWNLRAFGWYPHLGRLDNQGKINAWTAQSNSAKEWLQVDLGTQRQVTGIITQGARDFGHIQYVASYKVAHSDDGVQWTVYEEQGSSKVFQGNLDNNSHKKNIFEKPFMARYVRVLPVSWHNRITLRLELLGC
# Assays:
# Assay in all cases: glycan array binding signal (z-score within array); higher = stronger binding
# Details in all cases: glycan notation: IUPAC condensed, linker removed
# [1] = molecular target: Neu5Ac(a2-3)Gal(b1-4)[Fuc(a1-3)]GlcNAc(b1-3)GalNAc
# Outline: (§1)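 The Consortium for Functional Glycomics database supplied 3228 glycan arrays, of which those lacking an available protein sequence were dropped. The binding signal, a within-array Z-score, was averaged across arrays of the same protein sequence and across linkers. Negative scores can be read as non-binding.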
# [2] = molecular target: Neu5Ac(a2-3)Gal(b1-4)[Fuc(a1-3)]GlcNAc(b1-6)[Gal(b1-3)]GalNAc
# Outline: as §1
# [3] = molecular target: Neu5Ac(a2-3)Gal(b1-4)[Fuc(a1-3)]GlcNAc(b1-6)[Neu5Ac(a2-3)Gal(b1-3)]GalNAc
# Outline: as §1
# [4] = molecular target: Neu5Ac(a2-3)Gal(b1-4)[Fuc(a1-3)]GlcNAc6S
# Outline: as §1
# [5] = molecular target: Neu5Ac(a2-3)Gal6S(b1-4)GlcNAc
# Outline: as §1
# [6] = molecular target: Neu5Ac(a2-3)Gal6S(b1-4)[Fuc(a1-3)]GlcNAc
# Outline: as §1
# Neu5Ac(a2-3)GalNAc = molecular target: Neu5Ac(a2-3)GalNAc
# Outline: as §1
# [7] = molecular target: Neu5Ac(a2-3)GalNAc(b1-4)GlcNAc
# Outline: as §1
# [8] = molecular target: Neu5Ac(a2-3)[GalNAc(b1-4)]Gal(b1-4)Glc
# Outline: as §1
# [9] = molecular target: Neu5Ac(a2-3)[GalNAc(b1-4)]Gal(b1-4)GlcNAc
# Outline: as §1
# [10] = molecular target: Neu5Ac(a2-3)[GalNAc(b1-4)]Gal(b1-4)GlcNAc(b1-3)GalNAc
# Outline: as §1
# [11] = molecular target: Neu5Ac(a2-3)[Neu5Ac(a2-6)]GalNAc
# Outline: as §1
# Neu5Ac(a2-6)Gal = molecular target: Neu5Ac(a2-6)Gal
# Outline: as §1
# [12] = molecular target: Neu5Ac(a2-6)Gal(b1-3)GlcNAc(b1-3)[Gal(b1-4)GlcNAc(b1-6)]Gal(b1-4)Glc
# Outline: as §1
# Neu5Ac(a2-6)Gal(b1-4)Glc = molecular target: Neu5Ac(a2-6)Gal(b1-4)Glc
# Outline: as §1
# [13] = molecular target: Neu5Ac(a2-6)Gal(b1-4)GlcNAc
# Outline: as §1
# [14] = molecular target: Neu5Ac(a2-6)Gal(b1-4)GlcNAc(b1-2)Man
# Outline: as §1
# [15] = molecular target: Neu5Ac(a2-6)Gal(b1-4)GlcNAc(b1-2)Man(a1-3)Man(b1-4)GlcNAc(b1-4)GlcNAc
# Outline: as §1
# [16] = molecular target: Neu5Ac(a2-6)Gal(b1-4)GlcNAc(b1-2)Man(a1-3)[Gal(b1-4)GlcNAc(b1-2)Man(a1-6)]Man(b1-4)GlcNAc(b1-4)GlcNAc
# Outline: as §1
# [17] = molecular target: Neu5Ac(a2-6)Gal(b1-4)GlcNAc(b1-2)Man(a1-3)[GlcNAc(b1-2)Man(a1-6)]Man(b1-4)GlcNAc(b1-4)GlcNAc
# Outline: as §1
# [18] = molecular target: Neu5Ac(a2-6)Gal(b1-4)GlcNAc(b1-2)Man(a1-3)[GlcNAc(b1-2)Man(b1-4)GlcNAc(b1-2)Man(a1-6)]Man(b1-4)GlcNAc(b1-4)GlcNAc
# Outline: as §1
# [19] = molecular target: Neu5Ac(a2-6)Gal(b1-4)GlcNAc(b1-2)Man(a1-3)[GlcNAc(b1-4)][Neu5Ac(a2-6)Gal(b1-4)GlcNAc(b1-2)Man(a1-6)]Man(b1-4)GlcNAc(b1-4)GlcNAc
# Outline: as §1
# [20] = molecular target: Neu5Ac(a2-6)Gal(b1-4)GlcNAc(b1-2)Man(a1-3)[Man(a1-6)]Man(b1-4)GlcNAc(b1-4)GlcNAc
# Outline: as §1
# [21] = molecular target: Neu5Ac(a2-6)Gal(b1-4)GlcNAc(b1-2)Man(a1-3)[Neu5Ac(a2-3)Gal(b1-4)GlcNAc(b1-2)Man(a1-6)]Man(b1-4)GlcNAc(b1-4)GlcNAc
# Outline: as §1
# [22] = molecular target: Neu5Ac(a2-6)Gal(b1-4)GlcNAc(b1-2)Man(a1-3)[Neu5Ac(a2-6)Gal(b1-4)GlcNAc(b1-2)Man(a1-6)]Man(b1-4)GlcNAc(b1-4)GlcNAc
# Outline: as §1
# [23] = molecular target: Neu5Ac(a2-6)Gal(b1-4)GlcNAc(b1-2)Man(a1-3)[Neu5Ac(a2-6)Gal(b1-4)GlcNAc(b1-2)Man(a1-6)]Man(b1-4)GlcNAc(b1-4)[Fuc(a1-6)]GlcNAc
# Outline: as §1
# [24] = molecular target: Neu5Ac(a2-6)Gal(b1-4)GlcNAc(b1-2)Man(a1-6)Man(b1-4)GlcNAc(b1-4)GlcNAc
# Outline: as §1
# [25] = molecular target: Neu5Ac(a2-6)Gal(b1-4)GlcNAc(b1-2)Man(a1-6)[Gal(b1-4)GlcNAc(b1-2)Man(a1-3)]Man(b1-4)GlcNAc(b1-4)GlcNAc
# Outline: as §1
# [26] = molecular target: Neu5Ac(a2-6)Gal(b1-4)GlcNAc(b1-2)Man(a1-6)[GlcNAc(b1-2)Man(a1-3)]Man(b1-4)GlcNAc(b1-4)GlcNAc
# Outline: as §1
# [27] = molecular target: Neu5Ac(a2-6)Gal(b1-4)GlcNAc(b1-2)Man(a1-6)[Man(a1-3)]Man(b1-4)GlcNAc(b1-4)GlcNAc
# Outline: as §1
# [28] = molecular target: Neu5Ac(a2-6)Gal(b1-4)GlcNAc(b1-2)[Neu5Ac(a2-6)Gal(b1-4)GlcNAc(b1-4)]Man(a1-3)[GlcNAc(b1-4)][Neu5Ac(a2-6)Gal(b1-4)GlcNAc(b1-2)[Neu5Ac(a2-6)Gal(b1-4)GlcNAc(b1-6)]Man(a1-6)]Man(b1-4)GlcNAc(b1-4)GlcNAc
# Outline: as §1
# [29] = molecular target: Neu5Ac(a2-6)Gal(b1-4)GlcNAc(b1-2)[Neu5Ac(a2-6)Gal(b1-4)GlcNAc(b1-4)]Man(a1-3)[GlcNAc(b1-4)][Neu5Ac(a2-6)Gal(b1-4)GlcNAc(b1-4)Man(a1-6)]Man(b1-4)GlcNAc(b1-4)GlcNAc
# Outline: as §1
# [30] = molecular target: Neu5Ac(a2-6)Gal(b1-4)GlcNAc(b1-2)[Neu5Ac(a2-6)Gal(b1-4)GlcNAc(b1-6)]Man(a1-6)[Neu5Ac(a2-6)Gal(b1-4)GlcNAc(b1-2)Man(a1-3)][GlcNAc(b1-4)]Man(b1-4)GlcNAc(b1-4)GlcNAc
# Outline: as §1
# [31] = molecular target: Neu5Ac(a2-6)Gal(b1-4)GlcNAc(b1-3)Gal(b1-3)GlcNAc
# Outline: as §1
# [32] = molecular target: Neu5Ac(a2-6)Gal(b1-4)GlcNAc(b1-3)Gal(b1-4)GlcNAc
# Outline: as §1
# [33] = molecular target: Neu5Ac(a2-6)Gal(b1-4)GlcNAc(b1-3)Gal(b1-4)GlcNAc(b1-2)Man(a1-3)[Neu5Ac(a2-6)Gal(b1-4)GlcNAc(b1-3)Gal(b1-4)GlcNAc(b1-2)Man(a1-6)]GalNAc
# Outline: as §1
# [34] = molecular target: Neu5Ac(a2-6)Gal(b1-4)GlcNAc(b1-3)Gal(b1-4)GlcNAc(b1-3)Gal(b1-4)GlcNAc
# Outline: as §1
# [35] = molecular target: Neu5Ac(a2-6)Gal(b1-4)GlcNAc(b1-3)Gal(b1-4)GlcNAc(b1-3)Gal(b1-4)GlcNAc(b1-2)Man(a1-3)[Neu5Ac(a2-6)Gal(b1-4)GlcNAc(b1-3)Gal(b1-4)GlcNAc(b1-3)Gal(b1-4)GlcNAc(b1-2)Man(a1-6)]GalNAc
# Outline: as §1
# [36] = molecular target: Neu5Ac(a2-6)Gal(b1-4)GlcNAc(b1-3)Gal(b1-4)GlcNAc(b1-3)GalNAc
# Outline: as §1
# [37] = molecular target: Neu5Ac(a2-6)Gal(b1-4)GlcNAc(b1-3)Gal(b1-4)GlcNAc(b1-3)[Neu5Ac(a2-6)Gal(b1-4)GlcNAc(b1-3)Gal(b1-4)GlcNAc(b1-6)]GalNAc
# Outline: as §1
# [38] = molecular target: Neu5Ac(a2-6)Gal(b1-4)GlcNAc(b1-3)Gal(b1-4)GlcNAc(b1-6)[Gal(b1-3)]GalNAc
# Outline: as §1
# [39] = molecular target: Neu5Ac(a2-6)Gal(b1-4)GlcNAc(b1-3)Gal(b1-4)[Fuc(a1-3)]GlcNAc(b1-3)Gal(b1-4)[Fuc(a1-3)]GlcNAc
# Outline: as §1
binder,measurement,setting,value
B1,glycan array binding signal (z-score),[1],-0.277
same,glycan array binding signal (z-score),[2],0.678
same,glycan array binding signal (z-score),[3],0.094
same,glycan array binding signal (z-score),[4],-0.386
same,glycan array binding signal (z-score),[5],0.038
same,glycan array binding signal (z-score),[6],0.373
same,glycan array binding signal (z-score),Neu5Ac(a2-3)GalNAc,-0.34
same,glycan array binding signal (z-score),[7],-0.729
same,glycan array binding signal (z-score),[8],-1.07
same,glycan array binding signal (z-score),[9],-0.167
same,glycan array binding signal (z-score),[10],0.127
same,glycan array binding signal (z-score),[11],-0.775
same,glycan array binding signal (z-score),Neu5Ac(a2-6)Gal,0.316
same,glycan array binding signal (z-score),[12],-0.184
same,glycan array binding signal (z-score),Neu5Ac(a2-6)Gal(b1-4)Glc,-0.53
same,glycan array binding signal (z-score),[13],0.663
same,glycan array binding signal (z-score),[14],-0.354
same,glycan array binding signal (z-score),[15],0.146
same,glycan array binding signal (z-score),[16],-0.261
same,glycan array binding signal (z-score),[17],1.08
same,glycan array binding signal (z-score),[18],-1.22
same,glycan array binding signal (z-score),[19],0.277
same,glycan array binding signal (z-score),[20],-0.747
same,glycan array binding signal (z-score),[21],-0.667
same,glycan array binding signal (z-score),[22],-0.202
same,glycan array binding signal (z-score),[23],-0.05
same,glycan array binding signal (z-score),[24],0.651
same,glycan array binding signal (z-score),[25],-0.618
same,glycan array binding signal (z-score),[26],-0.719
same,glycan array binding signal (z-score),[27],0.477
same,glycan array binding signal (z-score),[28],0.017
same,glycan array binding signal (z-score),[29],-0.095
same,glycan array binding signal (z-score),[30],-0.262
same,glycan array binding signal (z-score),[31],0.935
same,glycan array binding signal (z-score),[32],-0.22
same,glycan array binding signal (z-score),[33],-0.21
same,glycan array binding signal (z-score),[34],-0.79
same,glycan array binding signal (z-score),[35],1.52
same,glycan array binding signal (z-score),[36],0.032
same,glycan array binding signal (z-score),[37],-0.26
same,glycan array binding signal (z-score),[38],-0.004
same,glycan array binding signal (z-score),[39],-0.437

# Exported as tab-separated lines: entries from further up
binder	measurement	setting	value
B1	glycan array binding signal (z-score)	[34]	-0.79
same	glycan array binding signal (z-score)	[35]	1.52
